Measurements reported in PubChem BioAssay AID1508588 (Peter MacCallum Cancer Centre, 2020).
Screen: 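Which gene losses make BRAF-mutant melanoma cells more responsive to vemurafenib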 (primary screen). Cells: human WM266.4 melanoma cells (BRAF V600 mutant). Reagent: siRNA pool against human genes, 40 nM. Time to read-out: 96 h from transfection to read-out. Challenge: vemurafenib 300 nM (about IC25), added 48 h after transfection, for 48 h; comparison arm got DMSO vehicle only. Measured: 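Ratios to non-targeting siRNA for cell gain, counted as DAPI nuclei after minus before drug and averaged over two replicates, and for absorbance-read medium lactate per cell; both binned into fold-change classes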. Reading the numbers: cell gain with vemurafenib: higher = more cell gain than with non-targeting siRNA; lactate per cell with vemurafenib: higher = more lactate made per cell. Hit rule: 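Enhancement is called by pairing each knock-down's vehicle-arm and drug-arm fold-change classes for viability or glycolysis; which class combinations qualify is not given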. Calls: active = enhances vemurafenib effect; inactive = no enhancement seen.
Shown is one part, drawn at random, of about 18,000 reagents. 790 of them (4.4%) were called active. 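Calls rest on a combination of fold-change classes in drug and vehicle arms, not all shown here.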

gene symbol | cell gain with vemurafenib | lactate per cell with vemurafenib | outcome
ZNF138 (GeneID 7697) | 0.61 | 0.6 | inactive
GNPTAB (GeneID 79158) | 0.35 | 1.58 | inactive
SLC47A1 (GeneID 55244) | 0.55 | 0.84 | inactive
C1QB (GeneID 713) | 0.45 | 1.4 | inactive
MSANTD1 (GeneID 345222) | 0.86 | 1.05 | inactive
OR1E1 (GeneID 8387) | 0.56 | 0.74 | inactive
NLRP10 (GeneID 338322) | 0.76 | 0.5 | inactive
TSPAN31 (GeneID 6302) | 0.8 | 0.55 | inactive
TENT4B (GeneID 64282) | 0.58 | 0.86 | inactive
OR6C70 (GeneID 390327) | 0.4 | 0.86 | inactive
ENC1 (GeneID 8507) | 0.7 | 0.62 | inactive
TUBB2A (GeneID 7280) | 0.07 | 1.49 | active
F11 (GeneID 2160) | 0.49 | 0.86 | inactive
SLC8A1 (GeneID 6546) | 0.56 | 1.04 | inactive
KCNE2 (GeneID 9992) | 0.64 | 1.12 | inactive
ASPNAT (GeneID 339983) | 0.18 | 0.78 | inactive
CNIH3 (GeneID 149111) | 0.6 | 0.62 | inactive
ZIC5 (GeneID 85416) | 0.9 | 1.12 | inactive
ENO3 (GeneID 2027) | 0.67 | 0.76 | inactive
MORF4L1 (GeneID 10933) | 0.28 | 0.4 | inactive
ZNF250 (GeneID 58500) | 0.65 | 0.67 | inactive
UBIAD1 (GeneID 29914) | 0.66 | 0.12 | active
IMPG1 (GeneID 3617) | 0.65 | 0.86 | inactive
AMELY (GeneID 266) | 0.7 | 0.97 | inactive
ST7 (GeneID 7982) | 0.21 | 0.29 | inactive
TMOD3 (GeneID 29766) | 0.42 | 0.83 | inactive
ZBTB48 (GeneID 3104) | 0.54 | 0.85 | inactive
GTSF1 (GeneID 121355) | 0.95 | 1.12 | inactive
SERPINE1 (GeneID 5054) | 0.49 | 0.56 | inactive
VIPAS39 (GeneID 63894) | 0.82 | 1.36 | inactive
NOL8 (GeneID 55035) | 0.15 | 0.7 | active

The list goes on, starting with the last 8 of the part before.
gene symbol | cell gain with vemurafenib | lactate per cell with vemurafenib | outcome
AMELY (GeneID 266) | 0.7 | 0.97 | inactive
ST7 (GeneID 7982) | 0.21 | 0.29 | inactive
TMOD3 (GeneID 29766) | 0.42 | 0.83 | inactive
ZBTB48 (GeneID 3104) | 0.54 | 0.85 | inactive
GTSF1 (GeneID 121355) | 0.95 | 1.12 | inactive
SERPINE1 (GeneID 5054) | 0.49 | 0.56 | inactive
VIPAS39 (GeneID 63894) | 0.82 | 1.36 | inactive
NOL8 (GeneID 55035) | 0.15 | 0.7 | active
SERPIND1 (GeneID 3053) | 0.49 | 0.86 | inactive
LCMT1 (GeneID 51451) | 0.65 | 0.74 | inactive
WDR83OS (GeneID 51398) | 0.15 | 1.38 | inactive
SLC39A4 (GeneID 55630) | 0.41 | 0.88 | inactive
DPP3 (GeneID 10072) | 0.45 | 2.17 | inactive
HSF5 (GeneID 124535) | 0.79 | 0.66 | inactive
STAT5A (GeneID 6776) | 0.34 | 0.72 | inactive
MTSS1 (GeneID 9788) | 0.65 | 0.74 | inactive
F13A1 (GeneID 2162) | 0.91 | 0.62 | inactive
PROSER2 (GeneID 254427) | 0.61 | 0.67 | inactive
OSBPL9 (GeneID 114883) | 0.68 | 0.48 | active
LCE1E (GeneID 353135) | 0.26 | 0.82 | inactive
ERLEC1 (GeneID 27248) | 1.15 | 0.45 | inactive
DENND10 (GeneID 404636) | 0.44 | 1.35 | inactive
ACTR5 (GeneID 79913) | 0.74 | 0.58 | inactive
GGCT (GeneID 79017) | 0.43 | 1.46 | inactive
GRK7 (GeneID 131890) | 0.19 | 0.5 | inactive
TRAPPC9 (GeneID 83696) | 0.49 | 0.09 | active
FAM124A (GeneID 220108) | 0.84 | 1.21 | inactive
CRHR2 (GeneID 1395) | 1.07 | 0.62 | inactive
MFN2 (GeneID 9927) | 0.56 | 0.92 | inactive
KDM5D (GeneID 8284) | 0.96 | 0.86 | inactive
ZBBX (GeneID 79740) | 0.44 | 1.92 | inactive
ATAD5 (GeneID 79915) | 0.81 | 0.79 | inactive
FBXL21P (GeneID 26223) | 0.25 | 2.34 | inactive
PCSK9 (GeneID 255738) | 0.86 | 1.26 | inactive
